At least one structure is not confirmed: it was looked up by name or label, or the drawing left a doubt.
Test system: 3D InSight™ Human Islet Microtissues
Assay: Glucose-stimulated insulin secretion (GSIS) after 13 days of glucolipotoxicity (GLTX) induced islet injury
Assay type: cell-based
Settings: GSIS at 16.7 mM glucose, vs GLTX group

SMILES: CCCCCCCCCCCCCCCC(=O)N[C@@H](CCC(=O)NCCCC[C@H](NC(=O)[C@H](C)NC(=O)[C@H](C)NC(=O)[C@H](CCC(N)=O)NC(=O)CNC(=O)[C@H](CCC(=O)O)NC(=O)[C@H](CC(C)C)NC(=O)[C@H](Cc1ccc(O)cc1)NC(=O)[C@H](CO)NC(=O)[C@H](CO)NC(=O)[C@@H](NC(=O)[C@H](CC(=O)O)NC(=O)[C@H](CO)NC(=O)[C@@H](NC(=O)[C@H](Cc1ccccc1)NC(=O)[C@@H](NC(=O)CNC(=O)[C@H](CCC(=O)O)NC(=O)[C@H](C)NC(=O)[C@@H](N)Cc1cnc[nH]1)[C@@H](C)O)[C@@H](C)O)C(C)C)C(=O)N[C@@H](CCC(=O)O)C(=O)N[C@@H](Cc1ccccc1)C(=O)N[C@H](C(=O)N[C@@H](C)C(=O)N[C@@H](Cc1c[nH]c2ccccc12)C(=O)N[C@@H](CC(C)C)C(=O)N[C@H](C(=O)N[C@@H](CCCNC(=N)N)C(=O)NCC(=O)N[C@@H](CCCNC(=N)N)C(=O)NCC(=O)O)C(C)C)[C@@H](C)CC)C(=O)O [liraglutide]
- glucose-stimulated insulin secretion (GSIS) (FIG. 1, long-term (13 days) treatment with 0.1 μM liraglutide alone in glucolipotox medium): does not improve the GSIS
- glucose-stimulated insulin secretion (GSIS) (FIG. 3, long-term (13 days) treatment with 1 μM liraglutide alone in glucolipotox medium): does not improve the GSIS
